Data taken from publication PMC10723793.
Changes are numbered by the printed parent chain. No constants are given. Whether binding was seen depends on the method and setting. Binding seen in cells or lysates may run through a third protein. Some entries that bind do so weakly or less than the wild type. Sequences can lack the tags named with a protein.

Amino acid sequences for entries named in this document (tags omitted).
UniProt Q5VSL9: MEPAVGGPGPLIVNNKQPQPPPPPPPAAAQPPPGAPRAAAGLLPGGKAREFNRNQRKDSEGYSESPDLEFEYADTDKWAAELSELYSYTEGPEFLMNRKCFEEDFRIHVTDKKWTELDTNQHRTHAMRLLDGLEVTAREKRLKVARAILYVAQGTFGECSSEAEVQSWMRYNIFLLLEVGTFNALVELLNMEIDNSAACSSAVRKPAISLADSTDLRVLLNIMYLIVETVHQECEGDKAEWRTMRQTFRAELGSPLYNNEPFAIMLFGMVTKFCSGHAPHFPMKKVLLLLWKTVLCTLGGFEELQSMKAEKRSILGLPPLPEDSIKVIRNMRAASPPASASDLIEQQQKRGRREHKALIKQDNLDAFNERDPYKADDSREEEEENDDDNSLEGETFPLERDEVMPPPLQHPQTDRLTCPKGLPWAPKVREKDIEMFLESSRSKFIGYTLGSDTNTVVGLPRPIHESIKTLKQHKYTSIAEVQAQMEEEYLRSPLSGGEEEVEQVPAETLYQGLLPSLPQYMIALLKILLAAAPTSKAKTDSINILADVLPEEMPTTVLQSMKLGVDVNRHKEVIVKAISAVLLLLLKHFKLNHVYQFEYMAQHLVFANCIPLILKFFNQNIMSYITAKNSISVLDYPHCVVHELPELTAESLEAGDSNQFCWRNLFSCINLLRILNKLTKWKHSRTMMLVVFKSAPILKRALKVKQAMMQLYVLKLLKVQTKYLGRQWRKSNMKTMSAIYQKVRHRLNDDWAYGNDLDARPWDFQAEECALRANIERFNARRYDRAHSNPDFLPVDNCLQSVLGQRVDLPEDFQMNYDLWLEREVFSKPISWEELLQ

How the values were obtained:
Experiment in all cases: co-IP; anti-FLAG M2 antibody and protein G sepharose on 1 mg lysate of transfected HEK293T cells (1% IGEPAL CA-630, 50 mM Tris-HCl pH 7.5, 120 mM NaCl, 1 mM EDTA), overnight at 4 °C; endogenous partners detected by Western blot
[1] = target: T1, FLAG-Trabid C443S (human) (UniProt Q9UGI0)
T1 sequence: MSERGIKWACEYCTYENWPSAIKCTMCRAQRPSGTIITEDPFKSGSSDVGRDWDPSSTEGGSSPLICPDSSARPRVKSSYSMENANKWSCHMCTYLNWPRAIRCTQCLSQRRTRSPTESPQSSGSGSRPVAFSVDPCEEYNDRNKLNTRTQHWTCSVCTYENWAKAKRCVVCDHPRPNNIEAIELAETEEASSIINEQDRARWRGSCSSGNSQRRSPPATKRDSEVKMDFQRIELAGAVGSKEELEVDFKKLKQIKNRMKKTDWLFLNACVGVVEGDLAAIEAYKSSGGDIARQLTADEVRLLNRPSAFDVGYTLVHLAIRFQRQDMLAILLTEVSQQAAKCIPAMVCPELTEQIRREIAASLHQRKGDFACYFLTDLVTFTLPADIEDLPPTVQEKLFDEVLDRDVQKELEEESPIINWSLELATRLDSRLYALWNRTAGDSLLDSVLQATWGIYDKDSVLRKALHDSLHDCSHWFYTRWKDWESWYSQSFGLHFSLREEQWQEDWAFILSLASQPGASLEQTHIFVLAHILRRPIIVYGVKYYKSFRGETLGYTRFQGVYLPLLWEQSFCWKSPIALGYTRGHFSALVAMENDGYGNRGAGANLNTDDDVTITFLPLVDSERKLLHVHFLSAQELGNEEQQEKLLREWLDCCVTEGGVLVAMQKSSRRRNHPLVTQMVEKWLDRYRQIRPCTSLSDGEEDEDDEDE

[2] = target: T2, FLAG-Trabid R438W (human) (UniProt Q9UGI0)
T2 sequence: T1 sequence with R438W, S443C

[3] = target: T3, FLAG-Trabid wild-type (human) (UniProt Q9UGI0)
T3 sequence: T1 sequence with S443C

Measured: binding

STRIP1 (from UniProt Q5VSL9 1-837)
binds: all assays above

B1: Striatin3 (protein, UniProt Q13033 1-797)
chain: MDELAGGGGGGPGMAAPPRQQQGPGGNLGLSPGGNGAAGGGGPPASEGAGPAAGPELSRPQQYTIPGILHYIQHEWARFEMERAHWEVERAELQARIAFLQGERKGQENLKKDLVRRIKMLEYALKQERAKYHKLKYGTELNQGDLKMPTFESEETKDTEAPTAPQNSQLTWKQGRQLLRQYLQEVGYTDTILDVRSQRVRSLLGLSNSEPNGSVETKNLEQILNGGESPKQKGQEIKRSSGDVLETFNFLENADDSDEDEENDMIEGIPEGKDKHRMNKHKIGNEGLAADLTDDPDTEEALKEFDFLVTAEDGEGAGEARSSGDGTEWDKDDLSPTAEVWDVDQGLISKLKEQYKKERKGKKGVKRANRTKLYDMIADLGDDELPHIPSGIINQSRSASTRMTDHEGARAEEAEPITFPSGGGKSFIMGSDDVLLSVLGLGDLADLTVTNDADYSYDLPANKDAFRKTWNPKYTLRSHFDGVRALAFHPVEPVLVTASEDHTLKLWNLQKTVPAKKSASLDVEPIYTFRAHIGPVLSLAISSNGEQCFSGGIDATIQWWNMPSPSVDPYDTYEPNVLAGTLVGHTDAVWGLAYSGIKNQLLSCSADGTVRLWNPQEKLPCICTYNGDKKHGIPTSVDFIGCDPAHMVTSFNTGSAVIYDLETSQSLVILSSQVDSGLQSNNHINRVVSHPTLPVTITAHEDRHIKFFDNKTGKMIHSMVAHLDAVTSLAVDPNGIYLMSGSHDCSIRLWNLDSKTCVQEITAHRKKLDESIYDVAFHSSKAYIASAGADALAKVFV
binds: all assays above
